Experimental data reported in article PMC10454932.
Results are given in words; binding and its absence hold for the method and conditions named. Binding seen in cells or lysates may run through a third protein. Some entries that bind do so weakly or less than the wild type. Tags and fused reporters may be left off the sequences shown.

Sequences of proteins named here, by UniProt entry; tags and fusion partners are left off.
UniProt Q61510: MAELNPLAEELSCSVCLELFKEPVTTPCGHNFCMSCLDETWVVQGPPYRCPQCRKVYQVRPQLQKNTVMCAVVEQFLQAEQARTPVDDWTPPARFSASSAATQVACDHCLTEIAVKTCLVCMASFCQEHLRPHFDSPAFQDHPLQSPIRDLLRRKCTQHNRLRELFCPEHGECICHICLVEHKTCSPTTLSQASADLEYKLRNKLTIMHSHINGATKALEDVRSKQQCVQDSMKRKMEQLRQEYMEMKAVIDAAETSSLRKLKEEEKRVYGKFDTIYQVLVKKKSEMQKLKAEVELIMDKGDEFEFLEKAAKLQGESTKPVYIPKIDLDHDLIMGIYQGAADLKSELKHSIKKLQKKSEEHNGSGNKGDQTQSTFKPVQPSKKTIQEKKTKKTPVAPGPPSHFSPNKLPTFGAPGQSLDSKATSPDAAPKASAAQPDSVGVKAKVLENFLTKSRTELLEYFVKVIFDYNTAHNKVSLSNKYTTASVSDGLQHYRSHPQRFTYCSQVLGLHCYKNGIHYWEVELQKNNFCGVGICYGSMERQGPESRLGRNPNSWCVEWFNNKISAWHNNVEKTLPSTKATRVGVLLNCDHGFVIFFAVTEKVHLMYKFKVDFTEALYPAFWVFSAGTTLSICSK

Molecular target: T1, Flag-RIG-I (mouse (cloned from N2a cells)) (UniProt Q6Q899)
T1 sequence: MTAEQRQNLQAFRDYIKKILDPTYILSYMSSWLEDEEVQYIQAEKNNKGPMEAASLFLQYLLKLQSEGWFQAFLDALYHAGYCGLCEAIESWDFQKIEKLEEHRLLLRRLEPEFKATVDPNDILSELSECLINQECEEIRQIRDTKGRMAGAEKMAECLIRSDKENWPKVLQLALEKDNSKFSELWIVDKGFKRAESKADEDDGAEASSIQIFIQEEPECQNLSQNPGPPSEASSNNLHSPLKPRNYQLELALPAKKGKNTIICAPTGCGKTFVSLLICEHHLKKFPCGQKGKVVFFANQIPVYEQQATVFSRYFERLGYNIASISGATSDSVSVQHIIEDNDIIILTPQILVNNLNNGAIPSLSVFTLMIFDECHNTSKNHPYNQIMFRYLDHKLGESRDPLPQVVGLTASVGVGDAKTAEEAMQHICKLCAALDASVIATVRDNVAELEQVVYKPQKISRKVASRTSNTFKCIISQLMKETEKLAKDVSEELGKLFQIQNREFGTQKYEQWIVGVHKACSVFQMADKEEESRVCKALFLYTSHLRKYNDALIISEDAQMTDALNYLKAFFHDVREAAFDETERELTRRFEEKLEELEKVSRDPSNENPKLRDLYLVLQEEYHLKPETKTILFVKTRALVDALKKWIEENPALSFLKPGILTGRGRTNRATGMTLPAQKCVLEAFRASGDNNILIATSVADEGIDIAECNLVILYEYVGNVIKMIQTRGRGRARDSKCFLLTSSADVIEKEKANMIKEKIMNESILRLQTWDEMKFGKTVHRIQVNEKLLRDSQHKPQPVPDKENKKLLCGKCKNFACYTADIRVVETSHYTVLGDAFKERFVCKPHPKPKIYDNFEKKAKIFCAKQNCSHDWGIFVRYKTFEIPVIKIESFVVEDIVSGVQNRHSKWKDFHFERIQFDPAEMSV
Assay: co-IP

- binding: binds
Substance: HA-TRIM25 (from UniProt Q61510 1-634) (enzyme)
